Results taken from the supplement of paper PMC10849652.
Some of the results follow.

By UniProt entry, the sequences of proteins in these tests, tags left out. Where a name states a change or a piece, a line headed by the entry shows the natural chain unless it says otherwise.
UniProt Q14376: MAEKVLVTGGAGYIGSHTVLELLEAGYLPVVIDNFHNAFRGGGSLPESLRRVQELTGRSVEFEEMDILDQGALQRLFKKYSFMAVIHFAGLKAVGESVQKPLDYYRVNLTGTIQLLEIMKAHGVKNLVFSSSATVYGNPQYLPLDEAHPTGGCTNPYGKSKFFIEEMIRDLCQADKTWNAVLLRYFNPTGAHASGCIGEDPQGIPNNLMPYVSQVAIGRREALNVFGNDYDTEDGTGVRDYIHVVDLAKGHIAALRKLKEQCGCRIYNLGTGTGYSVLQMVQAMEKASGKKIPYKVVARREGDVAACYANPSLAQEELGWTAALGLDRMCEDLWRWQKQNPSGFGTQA
UniProt O75879: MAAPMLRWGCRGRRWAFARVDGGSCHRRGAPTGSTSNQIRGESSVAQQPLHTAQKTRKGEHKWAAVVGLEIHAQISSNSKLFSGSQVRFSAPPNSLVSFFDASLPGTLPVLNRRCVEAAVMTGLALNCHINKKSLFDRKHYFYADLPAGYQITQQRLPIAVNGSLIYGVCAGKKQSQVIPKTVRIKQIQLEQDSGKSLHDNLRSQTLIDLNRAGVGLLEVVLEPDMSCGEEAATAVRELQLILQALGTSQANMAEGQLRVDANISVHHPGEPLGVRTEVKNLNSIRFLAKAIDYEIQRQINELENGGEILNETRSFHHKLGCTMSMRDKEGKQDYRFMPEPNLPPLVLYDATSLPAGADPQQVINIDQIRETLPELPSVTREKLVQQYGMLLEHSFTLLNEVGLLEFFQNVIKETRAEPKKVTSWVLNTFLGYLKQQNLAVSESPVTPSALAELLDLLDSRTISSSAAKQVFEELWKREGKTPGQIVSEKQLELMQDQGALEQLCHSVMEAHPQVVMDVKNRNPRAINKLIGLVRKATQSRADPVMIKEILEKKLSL
UniProt P31150: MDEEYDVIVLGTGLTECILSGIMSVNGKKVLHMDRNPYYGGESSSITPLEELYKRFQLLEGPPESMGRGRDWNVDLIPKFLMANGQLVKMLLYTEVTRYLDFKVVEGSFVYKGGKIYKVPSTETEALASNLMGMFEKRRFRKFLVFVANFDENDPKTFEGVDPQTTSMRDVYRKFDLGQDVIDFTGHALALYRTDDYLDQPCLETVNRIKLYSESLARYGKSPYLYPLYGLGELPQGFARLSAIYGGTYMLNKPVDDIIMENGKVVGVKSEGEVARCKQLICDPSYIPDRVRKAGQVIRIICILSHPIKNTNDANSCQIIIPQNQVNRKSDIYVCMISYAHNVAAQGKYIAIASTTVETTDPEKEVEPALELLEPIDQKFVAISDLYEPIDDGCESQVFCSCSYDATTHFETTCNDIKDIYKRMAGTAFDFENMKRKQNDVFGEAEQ
UniProt Q8WXD5: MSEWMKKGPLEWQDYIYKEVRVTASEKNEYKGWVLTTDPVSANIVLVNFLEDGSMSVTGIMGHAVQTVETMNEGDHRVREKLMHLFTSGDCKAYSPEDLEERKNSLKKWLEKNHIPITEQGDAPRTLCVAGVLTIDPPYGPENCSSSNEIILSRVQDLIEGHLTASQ
UniProt Q9C0B1, whole entry, looked up: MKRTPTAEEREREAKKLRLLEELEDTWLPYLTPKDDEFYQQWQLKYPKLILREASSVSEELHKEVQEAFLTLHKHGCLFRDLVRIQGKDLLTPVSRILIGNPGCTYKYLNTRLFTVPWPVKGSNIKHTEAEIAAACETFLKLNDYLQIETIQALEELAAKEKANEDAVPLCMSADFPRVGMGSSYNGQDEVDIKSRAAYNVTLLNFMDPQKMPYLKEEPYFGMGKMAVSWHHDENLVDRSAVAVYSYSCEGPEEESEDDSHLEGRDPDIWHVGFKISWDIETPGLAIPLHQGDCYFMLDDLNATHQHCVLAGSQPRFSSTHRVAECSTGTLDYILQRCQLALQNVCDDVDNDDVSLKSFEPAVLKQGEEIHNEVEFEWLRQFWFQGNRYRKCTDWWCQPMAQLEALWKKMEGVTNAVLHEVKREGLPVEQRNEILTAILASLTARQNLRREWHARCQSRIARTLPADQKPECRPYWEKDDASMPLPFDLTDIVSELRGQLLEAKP
UniProt Q8N9F7: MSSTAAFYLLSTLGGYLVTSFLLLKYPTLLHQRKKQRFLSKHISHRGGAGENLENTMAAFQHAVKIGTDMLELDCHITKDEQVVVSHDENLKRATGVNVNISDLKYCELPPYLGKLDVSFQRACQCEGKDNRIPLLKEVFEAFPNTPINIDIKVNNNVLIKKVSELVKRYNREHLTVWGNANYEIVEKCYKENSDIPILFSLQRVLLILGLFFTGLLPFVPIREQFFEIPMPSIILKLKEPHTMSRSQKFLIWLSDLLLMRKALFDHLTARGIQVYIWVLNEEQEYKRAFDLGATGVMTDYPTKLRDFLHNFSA
UniProt Q9UJ14: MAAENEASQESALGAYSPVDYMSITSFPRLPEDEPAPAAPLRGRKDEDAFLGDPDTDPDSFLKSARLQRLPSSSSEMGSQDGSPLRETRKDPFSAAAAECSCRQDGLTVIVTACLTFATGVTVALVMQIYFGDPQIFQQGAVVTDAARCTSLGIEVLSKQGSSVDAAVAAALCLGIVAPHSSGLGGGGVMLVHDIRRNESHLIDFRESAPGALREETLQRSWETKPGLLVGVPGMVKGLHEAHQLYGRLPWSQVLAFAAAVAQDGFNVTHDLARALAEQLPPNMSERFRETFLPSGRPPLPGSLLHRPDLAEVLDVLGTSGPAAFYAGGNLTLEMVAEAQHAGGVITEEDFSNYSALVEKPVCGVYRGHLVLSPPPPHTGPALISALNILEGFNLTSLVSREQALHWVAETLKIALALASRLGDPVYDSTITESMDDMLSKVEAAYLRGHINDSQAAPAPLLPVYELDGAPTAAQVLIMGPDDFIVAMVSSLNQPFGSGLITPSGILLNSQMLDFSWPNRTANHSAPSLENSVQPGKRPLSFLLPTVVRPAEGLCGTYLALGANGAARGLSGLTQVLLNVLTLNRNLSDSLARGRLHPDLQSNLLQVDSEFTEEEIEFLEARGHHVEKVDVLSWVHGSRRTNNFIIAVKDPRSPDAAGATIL
UniProt Q9UET6: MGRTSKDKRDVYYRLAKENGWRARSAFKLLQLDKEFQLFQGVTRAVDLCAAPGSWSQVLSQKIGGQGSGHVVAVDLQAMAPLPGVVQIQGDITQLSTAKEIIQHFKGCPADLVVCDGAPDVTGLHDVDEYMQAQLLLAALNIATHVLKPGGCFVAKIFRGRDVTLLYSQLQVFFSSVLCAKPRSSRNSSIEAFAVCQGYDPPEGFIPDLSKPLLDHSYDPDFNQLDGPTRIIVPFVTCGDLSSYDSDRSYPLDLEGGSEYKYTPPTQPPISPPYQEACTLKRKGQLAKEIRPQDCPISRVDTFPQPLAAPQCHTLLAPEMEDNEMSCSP
UniProt Q13069: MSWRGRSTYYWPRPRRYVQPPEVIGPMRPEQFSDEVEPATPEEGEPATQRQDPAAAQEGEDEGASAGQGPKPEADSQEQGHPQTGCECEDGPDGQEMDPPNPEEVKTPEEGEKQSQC
UniProt Q9BWH2: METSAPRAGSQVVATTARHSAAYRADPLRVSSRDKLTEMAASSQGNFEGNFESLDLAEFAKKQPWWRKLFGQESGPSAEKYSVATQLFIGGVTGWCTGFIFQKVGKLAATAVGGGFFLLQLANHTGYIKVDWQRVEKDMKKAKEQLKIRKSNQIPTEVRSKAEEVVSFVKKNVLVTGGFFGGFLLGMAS
UniProt P04066: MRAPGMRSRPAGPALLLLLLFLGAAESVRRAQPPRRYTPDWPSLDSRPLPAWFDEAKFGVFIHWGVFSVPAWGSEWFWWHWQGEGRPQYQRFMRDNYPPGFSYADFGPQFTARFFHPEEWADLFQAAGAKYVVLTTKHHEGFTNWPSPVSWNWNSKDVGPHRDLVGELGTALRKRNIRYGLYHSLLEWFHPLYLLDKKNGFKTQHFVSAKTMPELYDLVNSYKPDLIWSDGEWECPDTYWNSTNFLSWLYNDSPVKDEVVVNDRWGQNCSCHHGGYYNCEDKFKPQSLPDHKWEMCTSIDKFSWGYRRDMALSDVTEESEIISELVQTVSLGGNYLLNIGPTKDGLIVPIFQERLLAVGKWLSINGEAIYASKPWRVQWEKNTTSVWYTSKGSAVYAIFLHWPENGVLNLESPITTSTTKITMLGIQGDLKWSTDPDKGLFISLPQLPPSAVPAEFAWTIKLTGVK
UniProt Q6ZNA5: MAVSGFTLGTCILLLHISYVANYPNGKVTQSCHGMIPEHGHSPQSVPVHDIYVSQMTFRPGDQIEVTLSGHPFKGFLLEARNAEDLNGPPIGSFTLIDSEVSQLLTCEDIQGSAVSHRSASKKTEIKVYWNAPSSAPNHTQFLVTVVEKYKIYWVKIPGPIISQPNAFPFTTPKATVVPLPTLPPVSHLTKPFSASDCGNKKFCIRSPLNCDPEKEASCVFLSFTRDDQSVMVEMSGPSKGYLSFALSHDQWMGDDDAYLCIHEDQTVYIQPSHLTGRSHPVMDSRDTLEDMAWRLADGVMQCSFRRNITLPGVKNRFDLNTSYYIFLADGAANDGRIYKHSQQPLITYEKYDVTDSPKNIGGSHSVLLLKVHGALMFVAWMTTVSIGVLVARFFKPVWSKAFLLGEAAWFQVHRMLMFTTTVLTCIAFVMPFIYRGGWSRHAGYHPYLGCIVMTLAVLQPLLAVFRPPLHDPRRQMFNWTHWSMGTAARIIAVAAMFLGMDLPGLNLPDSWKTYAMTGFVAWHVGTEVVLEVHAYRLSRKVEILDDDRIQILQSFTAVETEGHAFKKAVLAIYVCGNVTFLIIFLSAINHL
UniProt Q14697: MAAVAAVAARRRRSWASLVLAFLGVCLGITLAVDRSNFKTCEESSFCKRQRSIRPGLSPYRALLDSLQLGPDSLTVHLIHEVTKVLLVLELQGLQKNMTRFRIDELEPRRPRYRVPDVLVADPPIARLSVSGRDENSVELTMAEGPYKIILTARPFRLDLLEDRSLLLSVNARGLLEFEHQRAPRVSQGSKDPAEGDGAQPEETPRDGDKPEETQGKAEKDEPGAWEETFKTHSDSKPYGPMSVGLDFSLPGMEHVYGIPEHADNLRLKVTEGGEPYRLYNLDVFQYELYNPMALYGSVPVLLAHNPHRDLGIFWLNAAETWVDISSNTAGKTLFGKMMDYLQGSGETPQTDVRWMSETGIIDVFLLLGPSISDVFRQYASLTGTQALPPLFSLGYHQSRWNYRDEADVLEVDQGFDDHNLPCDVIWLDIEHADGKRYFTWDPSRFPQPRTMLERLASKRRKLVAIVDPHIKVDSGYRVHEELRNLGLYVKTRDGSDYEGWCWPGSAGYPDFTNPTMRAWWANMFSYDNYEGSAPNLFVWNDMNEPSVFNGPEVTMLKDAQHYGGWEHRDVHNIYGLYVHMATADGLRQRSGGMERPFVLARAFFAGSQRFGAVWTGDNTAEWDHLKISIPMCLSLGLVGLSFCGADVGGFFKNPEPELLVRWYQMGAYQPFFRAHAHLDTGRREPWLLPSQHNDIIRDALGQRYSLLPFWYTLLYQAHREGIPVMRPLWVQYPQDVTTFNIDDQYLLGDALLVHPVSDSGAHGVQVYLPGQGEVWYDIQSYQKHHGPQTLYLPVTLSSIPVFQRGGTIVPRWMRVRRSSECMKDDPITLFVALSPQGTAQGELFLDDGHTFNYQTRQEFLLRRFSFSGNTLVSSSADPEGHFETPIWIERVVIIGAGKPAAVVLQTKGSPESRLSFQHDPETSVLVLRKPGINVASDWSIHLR
UniProt P02794, whole entry, looked up: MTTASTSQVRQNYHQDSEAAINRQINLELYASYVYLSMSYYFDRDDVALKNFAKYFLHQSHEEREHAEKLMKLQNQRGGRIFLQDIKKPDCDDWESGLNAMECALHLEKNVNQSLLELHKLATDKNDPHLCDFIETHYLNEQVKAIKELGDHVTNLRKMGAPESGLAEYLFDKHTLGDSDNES
UniProt Q6NT46: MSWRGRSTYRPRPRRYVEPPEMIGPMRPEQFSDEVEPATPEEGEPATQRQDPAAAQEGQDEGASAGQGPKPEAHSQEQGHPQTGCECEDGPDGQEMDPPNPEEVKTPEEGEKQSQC
UniProt Q8NB37: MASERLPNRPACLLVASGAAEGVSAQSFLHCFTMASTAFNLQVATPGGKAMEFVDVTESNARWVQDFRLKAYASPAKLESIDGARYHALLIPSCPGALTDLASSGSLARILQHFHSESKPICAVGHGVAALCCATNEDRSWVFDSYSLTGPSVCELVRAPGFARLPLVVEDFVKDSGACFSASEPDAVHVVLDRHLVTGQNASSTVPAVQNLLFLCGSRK

Assays:
Experiment in all cases: log2 fold change, soluble protein after heating vs DMSO (PISA); higher = thermal stabilisation; K562 cells, 10 uM, 30 min; active = over 0.2 and 3.5 SD of the protein, either way, in both replicates (recomputed)
[1] = compound: CC1=C(C=C(C=C1)NC(=O)C2=CC(=CC=C2)C(C)(C)C#N)NC3=CC4=C(C=C3)N=CN(C4=O)C
How it was run: (§1)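 Values are thermal stability changes relative to control samples and are taken from duplicates. They are stated as log2 fold changes. Before quantification by TMTpro 16plex LC-MS/MS with equalised channel sums, K562 cells at 2×10^6 cells/mL were treated with 10 μM compound for 30 min, heated in aliquots for 3 min across 48°C-58°C, pooled, extracted in PBS with 0.5% NP-40 at 4°C, and centrifuged at 21,000xg for 90 min to give the soluble supernatant.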

[2] = compound: CC1=C(C=C(C=C1)NC(=O)C2=CC(=CC=C2)N(C)C)NC(=O)C3=CC=C(C=C3)O
How it was run: as §1

[3] = compound: CC1=CC=C(C=C1)SC2=C3C=C(SC3=CN=C2)C(=O)N
How it was run: as §1

[4] = compound: CC1=NC(=CC=C1)C2=C(N=C(N2)C(C)(C)C)C3=CC4=NC=CN=C4C=C3
How it was run: as §1

Nexturastat A = compound: CCCCN(Cc1ccc(C(=O)NO)cc1)C(=O)Nc1ccccc1 [Nexturastat A]
How it was run: as §1

vemurafenib = compound: CCCS(=O)(=O)Nc1ccc(F)c(C(=O)c2c[nH]c3ncc(-c4ccc(Cl)cc4)cc23)c1F [vemurafenib]
How it was run: as §1

[5] = compound: CCCS(=O)(=O)Nc1ccc(F)c(C(=O)c2c[nH]c3ncc(Cl)cc23)c1F
How it was run: as §1

[6] = compound: CCCc1cc(C)[nH]c(=O)c1CNC(=O)c1cc(-c2ccnc(N3CCN(C)CC3)c2)cc2c1cnn2C(C)C
How it was run: as §1

givinostat = compound: CCN(CC)Cc1ccc2cc(COC(=O)Nc3ccc(C(=O)NO)cc3)ccc2c1 [givinostat]
How it was run: as §1

barasertib = compound: CCN(CCCOc1ccc2c(Nc3cc(CC(=O)Nc4cccc(F)c4)[nH]n3)ncnc2c1)CCOP(=O)(O)O [barasertib]
How it was run: as §1

Measured: log2 fold change

GALE (UniProt Q14376)
inactive: [1] 0.034 | [2] -0.009 | [3] -0.005 | [4] 0.032 | Nexturastat A -0.06 | vemurafenib 0.035 | [5] 0.003 | [6] -0.069 | givinostat -0.133 | barasertib 0.049

GATB (UniProt O75879)
inactive: [1] 0.02 | [2] -0.125 | [3] 0.196 | [4] 0.405 | Nexturastat A 0.142 | vemurafenib 0.07 | [5] 0.17 | [6] 0.031 | givinostat 0.169

GHITM (UniProt Q9H3K2)
inactive: [1] 0.001 | [2] 0.043 | [3] 0.01 | [4] 0.044 | Nexturastat A -0.012 | vemurafenib 0.009 | [5] 0.027 | [6] -0.053 | givinostat 0.023 | barasertib -0.015

GDI1 (UniProt P31150)
inactive: [1] 0.007 | [2] 0.012 | [3] -0.003 | [4] 0.009 | Nexturastat A -0.051 | vemurafenib 0.015 | [5] -0.008 | [6] -0.027 | givinostat -0.032 | barasertib 0.012

GATAD2A isoform 3 (UniProt Q86YP4)
inactive: [1] 0.047 | [2] -0.225 | [3] -0.054 | [4] -0.034 | Nexturastat A 0.013 | vemurafenib 0.065 | [5] 0.101 | [6] 0.065 | givinostat 0.145 | barasertib 0.112

GDE1 (UniProt Q9NZC3)
inactive: [1] 0.022 | [2] -0.004 | [3] 0.012 | [4] -0.059 | Nexturastat A 0.02 | vemurafenib -0.033 | [5] -0.009 | [6] 0.064 | givinostat -0.052 | barasertib -0.049

GEMIN6 (UniProt Q8WXD5)
inactive: [1] -0.049 | [2] -0.05 | [3] 0.014 | [4] 0.015 | Nexturastat A 0.134 | vemurafenib 0.073 | [5] -0.001 | [6] 0.008 | givinostat -0.088 | barasertib -0.053

FTO (UniProt Q9C0B1)
inactive: [1] 0.018 | [2] -0.018 | [3] 0.008 | [4] 0.039 | Nexturastat A -0.04 | vemurafenib -0.013 | [5] -0.01 | [6] -0.027 | givinostat -0.122 | barasertib -0.001

GDPD1 (UniProt Q8N9F7)
inactive: [1] 0.003 | [2] -0.135 | [3] 0.022 | [4] -0.07 | Nexturastat A -0.026 | vemurafenib 0.022 | [5] -0.081 | [6] 0.099 | givinostat -0.046 | barasertib 0.001

GGT7 (UniProt Q9UJ14)
inactive: [1] -0.125 | [2] 0 | [3] 0.07 | [4] -0.008 | Nexturastat A 0.032 | vemurafenib 0.112 | [5] -0.011 | [6] 0.033 | givinostat 0.019 | barasertib 0.061

Random excerpt: 2 records from the list
GATB (UniProt O75879)
inactive: [1] 0.02 | [2] -0.125 | [3] 0.196 | [4] 0.405 | Nexturastat A 0.142 | vemurafenib 0.07 | [5] 0.17 | [6] 0.031 | givinostat 0.169

GDE1 (UniProt Q9NZC3)
inactive: [1] 0.022 | [2] -0.004 | [3] 0.012 | [4] -0.059 | Nexturastat A 0.02 | vemurafenib -0.033 | [5] -0.009 | [6] 0.064 | givinostat -0.052 | barasertib -0.049

(further entries)

FTSJ1 (UniProt Q9UET6)
inactive: [1] -0.007 | [2] -0.042 | [3] -0.025 | [4] 0.011 | Nexturastat A -0.012 | vemurafenib 0.02 | [5] 0.052 | [6] -0.051 | givinostat -0.011 | barasertib 0.012

GCN1 (UniProt Q92616)
inactive: [1] 0.075 | [2] 0.072 | [3] -0.019 | [4] -0.201 | Nexturastat A 0.501 | vemurafenib -0.038 | [5] -0.038 | [6] 0.2 | givinostat 0.231 | barasertib 0.011

FUT11 (UniProt Q495W5)
inactive: [1] 0.077 | [2] -0.101 | [3] -0.083 | [4] 0.005 | Nexturastat A -0.122 | vemurafenib -0.055 | [5] -0.281 | [6] 0.067 | givinostat 0.103 | barasertib -0.013

GBF1 (UniProt Q92538)
inactive: [1] -0.049 | [2] -0.071 | [3] -0.012 | [4] -0.028 | Nexturastat A 0.078 | vemurafenib 0.028 | [5] 0.059 | [6] 0.014 | givinostat 0.07 | barasertib 0.028

GAGE5 (UniProt Q13069)
inactive: [1] -0.067 | [2] -0.031 | [3] 0 | [4] 0.009 | Nexturastat A -0.031 | vemurafenib 0.052 | [5] -0.067 | [6] -0.061 | givinostat -0.033 | barasertib 0.037

FUNDC2 (UniProt Q9BWH2)
inactive: [1] -0.023 | [2] 0.031 | [3] -0.056 | [4] -0.013 | Nexturastat A -0.067 | vemurafenib -0.014 | [5] -0.131 | [6] -0.072 | givinostat 0.01 | barasertib 0.004

GALNT11 (UniProt Q8NCW6)
inactive: [1] 0.011 | [2] 0.049 | [3] -0.024 | [4] -0.041 | Nexturastat A -0.032 | vemurafenib 0.009 | [5] -0.035 | [6] -0.002 | givinostat 0.027 | barasertib 0.118

FUCA1 (UniProt P04066)
inactive: [1] 0.03 | [2] 0.009 | [3] 0.021 | [4] 0.092 | Nexturastat A -0.054 | vemurafenib -0.007 | [5] 0.066 | [6] -0.016 | givinostat 0 | barasertib 0.012

FRRS1 (UniProt Q6ZNA5)
inactive: [1] -0.051 | [2] -0.025 | [3] 0.047 | [4] 0.013 | Nexturastat A 0.006 | vemurafenib -0.009 | [5] 0.036 | [6] -0.034 | givinostat -0.057 | barasertib 0

GANAB isoform 2 (UniProt Q14697)
inactive: [1] 0.027 | [2] -0.031 | [3] -0.034 | [4] -0.015 | Nexturastat A 0.03 | vemurafenib 0.007 | [5] -0.002 | [6] 0.056 | givinostat 0.01 | barasertib -0.023

FYCO1 isoform 4 (UniProt Q9BQS8)
inactive: [1] 0.018 | [2] 0.045 | [3] -0.014 | [4] -0.037 | Nexturastat A 0.028 | vemurafenib -0.013 | [5] 0.049 | [6] 0.042 | givinostat 0.035 | barasertib 0.1

GAN (UniProt Q9H2C0)
inactive: [1] -0.002 | [2] -0.008 | [3] -0.021 | [4] 0.035 | Nexturastat A -0.04 | vemurafenib 0.013 | [5] 0.01 | [6] -0.001 | givinostat -0.031 | barasertib 0.013

FOXRED1 (UniProt Q96CU9)
inactive: [1] -0.04 | [2] 0.038 | [3] 0.012 | [4] 0.067 | Nexturastat A -0.017 | vemurafenib 0.009 | [5] 0.028 | [6] -0.013 | givinostat -0.033 | barasertib 0.025

FTH1 (UniProt P02794)
inactive: [1] -0.086 | [2] 0.096 | [3] -0.032 | [4] 0.039 | Nexturastat A -0.091 | vemurafenib -0.037 | [5] -0.01 | [6] -0.06 | givinostat -0.201 | barasertib -0.009

GAGE2A (UniProt Q6NT46)
inactive: [1] -0.012 | [2] 0.025 | [3] 0.009 | [4] 0.019 | Nexturastat A -0.052 | vemurafenib 0.003 | [5] -0.049 | [6] -0.068 | givinostat 0.024 | barasertib -0.012

GARS1 (UniProt P41250)
inactive: [1] -0.002 | [2] -0.008 | [3] -0.01 | [4] 0.003 | Nexturastat A -0.049 | vemurafenib -0.021 | [5] -0.017 | [6] 0.011 | givinostat -0.022 | barasertib -0.005

FNTB (UniProt P49356)
inactive: [1] 0.032 | [2] -0.058 | [3] 0 | [4] 0 | Nexturastat A -0.041 | vemurafenib 0.011 | [5] -0.052 | [6] 0.029 | givinostat -0.083 | barasertib -0.034

FXN (UniProt Q16595)
inactive: [1] -0.043 | [2] -0.136 | [3] 0.073 | [4] 0.025 | Nexturastat A 0.006 | vemurafenib 0.135 | [5] 0.049 | [6] 0.036 | givinostat -0.033 | barasertib 0.018

GALNT1 (UniProt Q10472)
inactive: [1] -0.004 | [2] 0 | [3] 0.03 | [4] 0.067 | Nexturastat A 0.001 | vemurafenib 0.02 | [5] -0.021 | [6] -0.055 | givinostat 0.003 | barasertib 0.007

GATD1 (UniProt Q8NB37)
inactive: [1] 0.054 | [2] -0.041 | [3] -0.023 | [4] -0.108 | Nexturastat A 0.067 | vemurafenib -0.047 | [5] -0.06 | [6] 0.021 | givinostat 0.013 | barasertib 0.024
